No constants are given. Whether binding was seen depends on the method and setting. For some assays here: In cells and extracts the contact can be indirect. Some entries that bind do so weakly or less than the wild type. Tags and fused reporters may be left off the sequences shown.
Legend:
[1] = molecular target: CELLULOSE SYNTHASE 3 fused to the C-terminal part of ubiquitin (Cub) and the URA3 reporter protein (split-ubiquitin bait) (Arabidopsis thaliana) (UniProt Q941L0); test: two-hybrid; yeast split-ubiquitin two-hybrid in S. cerevisiae JD53; bait CESA3-Cub-URA3, preys fused to NubG; growth on SC-HT medium with 1 mg/ml 5-FOA; 80 colonies of each combination spotted, 30°C, 3 d
[2] = molecular target: YFP^N-CESA3 (the N-terminal half of YFP fused to the N-terminus of CESA3) (Arabidopsis thaliana) (UniProt Q941L0); test: split reporter; BiFC with the halves of YFP, co-expression in epidermal cells of Nicotiana benthamiana (tobacco) leaves, YFP fluorescence by confocal microscopy

binding [1] | binding [2] | Binder
binds |  | CELLULOSE SYNTHASE 3 fused to the C-terminal part of ubiquitin (Cub) and the URA3 reporter protein (split-ubiquitin bait) (enzyme, UniProt Q941L0 1-1065) MESEGETAGKPMKNIVPQTCQICSDNVGKTVDGDRFVACDICSFPVCRPCYEYERKDGNQSCPQCKTRYKRLKGSPAIPGDKDEDGLADEGTVEFNYPQKEKISERMLGWHLTRGKGEEMGEPQYDKEVSHNHLPRLTSRQDTSGEFSAASPERLSVSSTIAGGKRLPYSSDVNQSPNRRIVDPVGLGNVAWKERVDGWKMKQEKNTGPVSTQAASERGGVDIDASTDILADEALLNDEARQPLSRKVSIPSSRINPYRMVIMLRLVILCLFLHYRITNPVPNAFALWLVSVICEIWFALSWILDQFPKWFPVNRETYLDRLALRYDREGEPSQLAAVDIFVSTVDPLKEPPLVTANTVLSILAVDYPVDKVSCYVSDDGAAMLSFESLAETSEFARKWVPFCKKYSIEPRAPEWYFAAKIDYLKDKVQTSFVKDRRAMKREYEEFKIRINALVSKALKCPEEGWVMQDGTPWPGNNTRDHPGMIQVFLGQNGGLDAEGNELPRLVYVSREKRPGFQHHKKAGAMNALVRVSAVLTNGPFILNLDCDHYINNSKALREAMCFLMDPNLGKQVCYVQFPQRFDGIDKNDRYANRNTVFFDINLRGLDGIQGPVYVGTGCVFNRTALYGYEPPIKVKHKKPSLLSKLCGGSRKKNSKAKKESDKKKSGRHTDSTVPVFNLDDIEEGVEGAGFDDEKALLMSQMSLEKRFGQSAVFVASTLMENGGVPPSATPENLLKEAIHVISCGYEDKSDWGMEIGWIYGSVTEDILTGFKMHARGWRSIYCMPKLPAFKGSAPINLSDRLNQVLRWALGSVEILFSRHCPIWYGYNGRLKFLERFAYVNTTIYPITSIPLLMYCTLPAVCLFTNQFIIPQISNIASIWFLSLFLSIFATGILEMRWSGVGIDEWWRNEQFWVIGGVSAHLFAVFQGILKVLAGIDTNFTVTSKASDEDGDFAELYLFKWTTLLIPPTTLLIVNLVGVVAGVSYAINSGYQSWGPLFGKLFFAFWVIVHLYPFLKGLMGRQNRTPTIVVVWSVLLASIFSLLWVRIDPFTSRVTGPDILECGINC
 | binds | YFP^N-CESA3 (the N-terminal half of YFP fused to the N-terminus of CESA3) (enzyme, UniProt Q941L0 1-1065) MESEGETAGKPMKNIVPQTCQICSDNVGKTVDGDRFVACDICSFPVCRPCYEYERKDGNQSCPQCKTRYKRLKGSPAIPGDKDEDGLADEGTVEFNYPQKEKISERMLGWHLTRGKGEEMGEPQYDKEVSHNHLPRLTSRQDTSGEFSAASPERLSVSSTIAGGKRLPYSSDVNQSPNRRIVDPVGLGNVAWKERVDGWKMKQEKNTGPVSTQAASERGGVDIDASTDILADEALLNDEARQPLSRKVSIPSSRINPYRMVIMLRLVILCLFLHYRITNPVPNAFALWLVSVICEIWFALSWILDQFPKWFPVNRETYLDRLALRYDREGEPSQLAAVDIFVSTVDPLKEPPLVTANTVLSILAVDYPVDKVSCYVSDDGAAMLSFESLAETSEFARKWVPFCKKYSIEPRAPEWYFAAKIDYLKDKVQTSFVKDRRAMKREYEEFKIRINALVSKALKCPEEGWVMQDGTPWPGNNTRDHPGMIQVFLGQNGGLDAEGNELPRLVYVSREKRPGFQHHKKAGAMNALVRVSAVLTNGPFILNLDCDHYINNSKALREAMCFLMDPNLGKQVCYVQFPQRFDGIDKNDRYANRNTVFFDINLRGLDGIQGPVYVGTGCVFNRTALYGYEPPIKVKHKKPSLLSKLCGGSRKKNSKAKKESDKKKSGRHTDSTVPVFNLDDIEEGVEGAGFDDEKALLMSQMSLEKRFGQSAVFVASTLMENGGVPPSATPENLLKEAIHVISCGYEDKSDWGMEIGWIYGSVTEDILTGFKMHARGWRSIYCMPKLPAFKGSAPINLSDRLNQVLRWALGSVEILFSRHCPIWYGYNGRLKFLERFAYVNTTIYPITSIPLLMYCTLPAVCLFTNQFIIPQISNIASIWFLSLFLSIFATGILEMRWSGVGIDEWWRNEQFWVIGGVSAHLFAVFQGILKVLAGIDTNFTVTSKASDEDGDFAELYLFKWTTLLIPPTTLLIVNLVGVVAGVSYAINSGYQSWGPLFGKLFFAFWVIVHLYPFLKGLMGRQNRTPTIVVVWSVLLASIFSLLWVRIDPFTSRVTGPDILECGINC
